The nature of this data set: general procedure: Fmoc solid-phase peptide synthesis; Rink amide 4-methylbenzhydrylamine resin; HATU. The settings on record: whole synthesis.

Data on 1 substance can be found in publication PMC7704979 (EJNMMI Radiopharmacy and Chemistry, 2020).

In turn, “AAZTA^5-Pip-D-Phe-Gln-Trp-Ala-Val-Gly-His-Sta-Leu-NH2” gave an isolated yield of 30 to 40%. For the same substance, for the setting “HPLC and mass spectroscopy”, the “final HPLC purity” value was more than 95%.
